# Experimental data published in article PMC12409219 (Diabetes, Obesity & Metabolism, 2025).
# Assay: general procedure: Fmoc solid-phase peptide synthesis; Rink Amide; DIPC/HOBt
# Details: whole synthesis
substance,measurement,value
HISHS-2001,final purity (method not given),above 98%
